Among the data in paper PMC5380967 are binding values, retold here.

Protein sequences, listed by entry. Tags and fused reporters are not part of them.
UniProt Q93008: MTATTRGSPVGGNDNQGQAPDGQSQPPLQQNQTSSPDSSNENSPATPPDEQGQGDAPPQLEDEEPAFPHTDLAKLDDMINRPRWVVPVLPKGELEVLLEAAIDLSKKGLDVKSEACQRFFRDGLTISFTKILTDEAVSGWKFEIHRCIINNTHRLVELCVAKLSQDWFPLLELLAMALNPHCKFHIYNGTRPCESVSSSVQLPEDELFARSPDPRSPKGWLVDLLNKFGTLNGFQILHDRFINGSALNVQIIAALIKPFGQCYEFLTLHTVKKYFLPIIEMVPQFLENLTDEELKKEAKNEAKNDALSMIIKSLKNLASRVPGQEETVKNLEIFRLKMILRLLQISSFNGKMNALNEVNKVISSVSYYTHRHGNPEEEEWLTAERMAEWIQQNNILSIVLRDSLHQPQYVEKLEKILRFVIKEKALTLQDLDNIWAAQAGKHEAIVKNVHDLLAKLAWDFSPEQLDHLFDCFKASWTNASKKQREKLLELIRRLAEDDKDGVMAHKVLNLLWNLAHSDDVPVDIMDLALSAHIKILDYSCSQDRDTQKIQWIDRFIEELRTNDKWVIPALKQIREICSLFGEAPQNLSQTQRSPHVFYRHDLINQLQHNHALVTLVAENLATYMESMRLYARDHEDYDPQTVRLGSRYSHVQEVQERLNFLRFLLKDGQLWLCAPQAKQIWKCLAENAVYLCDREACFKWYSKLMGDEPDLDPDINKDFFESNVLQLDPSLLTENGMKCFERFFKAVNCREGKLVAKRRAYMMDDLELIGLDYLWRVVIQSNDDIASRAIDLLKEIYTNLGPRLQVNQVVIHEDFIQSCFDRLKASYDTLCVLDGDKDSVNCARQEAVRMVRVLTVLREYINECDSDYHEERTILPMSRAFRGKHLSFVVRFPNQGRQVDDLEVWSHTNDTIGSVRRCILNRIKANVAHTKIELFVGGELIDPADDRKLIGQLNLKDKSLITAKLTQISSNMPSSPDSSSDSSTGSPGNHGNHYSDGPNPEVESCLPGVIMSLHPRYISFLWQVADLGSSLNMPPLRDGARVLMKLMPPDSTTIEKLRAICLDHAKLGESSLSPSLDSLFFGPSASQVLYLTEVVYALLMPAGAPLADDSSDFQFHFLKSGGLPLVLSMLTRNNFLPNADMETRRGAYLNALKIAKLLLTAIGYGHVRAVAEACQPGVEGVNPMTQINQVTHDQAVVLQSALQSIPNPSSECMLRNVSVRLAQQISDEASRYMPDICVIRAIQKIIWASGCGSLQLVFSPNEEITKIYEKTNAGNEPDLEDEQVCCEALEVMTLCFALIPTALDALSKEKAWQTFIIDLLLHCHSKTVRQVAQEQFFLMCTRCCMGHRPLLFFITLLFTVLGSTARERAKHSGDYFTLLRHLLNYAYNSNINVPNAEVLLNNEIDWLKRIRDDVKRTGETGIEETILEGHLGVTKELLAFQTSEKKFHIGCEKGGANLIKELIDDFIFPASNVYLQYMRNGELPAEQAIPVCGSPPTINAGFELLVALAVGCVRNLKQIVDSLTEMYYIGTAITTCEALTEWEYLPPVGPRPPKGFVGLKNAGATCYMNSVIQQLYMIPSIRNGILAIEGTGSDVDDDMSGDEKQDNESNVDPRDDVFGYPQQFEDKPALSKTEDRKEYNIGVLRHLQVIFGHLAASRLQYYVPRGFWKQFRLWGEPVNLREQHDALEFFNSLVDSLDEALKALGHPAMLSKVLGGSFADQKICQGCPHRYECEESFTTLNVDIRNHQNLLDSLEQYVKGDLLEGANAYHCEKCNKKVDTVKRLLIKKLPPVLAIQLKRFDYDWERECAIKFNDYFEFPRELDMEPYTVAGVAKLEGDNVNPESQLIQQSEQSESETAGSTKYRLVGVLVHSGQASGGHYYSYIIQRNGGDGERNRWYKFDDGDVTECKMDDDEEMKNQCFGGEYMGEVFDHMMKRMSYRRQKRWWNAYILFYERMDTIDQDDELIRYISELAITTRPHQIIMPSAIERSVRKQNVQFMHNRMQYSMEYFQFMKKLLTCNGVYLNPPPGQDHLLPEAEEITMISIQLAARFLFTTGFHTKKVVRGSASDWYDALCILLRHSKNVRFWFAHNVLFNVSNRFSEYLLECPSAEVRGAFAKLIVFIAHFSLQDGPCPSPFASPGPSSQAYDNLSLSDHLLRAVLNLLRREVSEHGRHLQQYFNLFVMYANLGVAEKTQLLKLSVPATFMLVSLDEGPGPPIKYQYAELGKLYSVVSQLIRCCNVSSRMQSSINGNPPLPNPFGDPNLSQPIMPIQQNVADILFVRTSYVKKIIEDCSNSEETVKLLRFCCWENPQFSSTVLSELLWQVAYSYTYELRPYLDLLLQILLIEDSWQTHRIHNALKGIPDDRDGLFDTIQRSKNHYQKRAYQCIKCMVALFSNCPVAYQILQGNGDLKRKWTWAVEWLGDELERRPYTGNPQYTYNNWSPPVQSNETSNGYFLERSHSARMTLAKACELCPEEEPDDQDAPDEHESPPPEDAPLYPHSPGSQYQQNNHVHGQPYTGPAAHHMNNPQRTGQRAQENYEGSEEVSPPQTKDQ
UniProt Q15154: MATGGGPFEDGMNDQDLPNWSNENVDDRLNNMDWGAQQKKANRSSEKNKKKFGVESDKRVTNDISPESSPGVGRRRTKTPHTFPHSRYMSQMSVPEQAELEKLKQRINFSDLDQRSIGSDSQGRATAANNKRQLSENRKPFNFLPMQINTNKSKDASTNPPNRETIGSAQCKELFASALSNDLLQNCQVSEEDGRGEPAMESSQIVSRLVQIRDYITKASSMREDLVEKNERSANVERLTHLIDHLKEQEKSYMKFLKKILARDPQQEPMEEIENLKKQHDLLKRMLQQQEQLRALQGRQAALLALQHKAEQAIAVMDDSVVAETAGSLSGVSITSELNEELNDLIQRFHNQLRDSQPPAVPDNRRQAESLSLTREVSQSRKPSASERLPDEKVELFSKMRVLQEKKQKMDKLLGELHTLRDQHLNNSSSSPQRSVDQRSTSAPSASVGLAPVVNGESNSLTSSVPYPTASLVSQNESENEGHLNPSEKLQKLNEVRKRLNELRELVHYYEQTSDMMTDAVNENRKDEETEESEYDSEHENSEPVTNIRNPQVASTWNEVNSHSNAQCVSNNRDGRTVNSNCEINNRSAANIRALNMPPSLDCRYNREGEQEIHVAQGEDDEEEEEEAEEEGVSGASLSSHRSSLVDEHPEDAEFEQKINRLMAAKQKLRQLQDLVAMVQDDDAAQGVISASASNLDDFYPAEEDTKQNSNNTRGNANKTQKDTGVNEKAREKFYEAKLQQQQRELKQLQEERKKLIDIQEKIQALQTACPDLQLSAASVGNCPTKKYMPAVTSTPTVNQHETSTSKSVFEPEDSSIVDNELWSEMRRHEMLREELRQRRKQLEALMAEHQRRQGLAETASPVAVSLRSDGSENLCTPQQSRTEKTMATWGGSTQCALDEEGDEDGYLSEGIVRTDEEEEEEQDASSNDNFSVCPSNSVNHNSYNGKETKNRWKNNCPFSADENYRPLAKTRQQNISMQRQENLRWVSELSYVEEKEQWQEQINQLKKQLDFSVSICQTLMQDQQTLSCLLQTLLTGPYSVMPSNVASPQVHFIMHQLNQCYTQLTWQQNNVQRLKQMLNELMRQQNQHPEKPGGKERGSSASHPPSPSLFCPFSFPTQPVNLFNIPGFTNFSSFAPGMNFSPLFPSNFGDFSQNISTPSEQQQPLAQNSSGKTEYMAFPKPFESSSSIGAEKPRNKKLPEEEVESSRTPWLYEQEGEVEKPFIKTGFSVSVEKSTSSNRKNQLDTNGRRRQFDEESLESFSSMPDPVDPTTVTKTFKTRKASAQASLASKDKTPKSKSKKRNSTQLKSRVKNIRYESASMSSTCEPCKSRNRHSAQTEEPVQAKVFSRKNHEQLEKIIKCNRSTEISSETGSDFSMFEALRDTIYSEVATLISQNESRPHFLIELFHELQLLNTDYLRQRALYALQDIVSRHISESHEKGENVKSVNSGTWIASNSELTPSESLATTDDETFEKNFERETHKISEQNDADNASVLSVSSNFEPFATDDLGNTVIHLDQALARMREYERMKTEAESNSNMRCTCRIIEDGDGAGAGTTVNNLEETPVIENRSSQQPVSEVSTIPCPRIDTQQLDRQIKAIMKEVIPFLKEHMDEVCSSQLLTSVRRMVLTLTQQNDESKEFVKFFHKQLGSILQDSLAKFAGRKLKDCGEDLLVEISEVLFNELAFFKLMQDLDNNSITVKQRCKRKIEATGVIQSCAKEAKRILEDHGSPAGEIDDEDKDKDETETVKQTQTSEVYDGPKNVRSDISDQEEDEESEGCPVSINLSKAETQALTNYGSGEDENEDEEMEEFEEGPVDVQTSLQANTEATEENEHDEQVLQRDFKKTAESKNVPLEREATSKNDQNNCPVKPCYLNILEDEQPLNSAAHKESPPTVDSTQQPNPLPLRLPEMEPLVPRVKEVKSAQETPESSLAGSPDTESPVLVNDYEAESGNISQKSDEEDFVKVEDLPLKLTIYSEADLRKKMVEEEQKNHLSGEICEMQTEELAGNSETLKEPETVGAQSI

Results are given in words; binding and its absence hold for the method and conditions named. Binding seen in cells or lysates may run through a third protein. These calls come from enrichment with a bait or labelling near it, and not all partners need be listed. For part of these data: Where a sequence is shown, tags or fusion partners need not be part of it.

In one experiment the target is T1, FLAG-CEP131 (human) (UniProt Q9UPN4).
T1 sequence: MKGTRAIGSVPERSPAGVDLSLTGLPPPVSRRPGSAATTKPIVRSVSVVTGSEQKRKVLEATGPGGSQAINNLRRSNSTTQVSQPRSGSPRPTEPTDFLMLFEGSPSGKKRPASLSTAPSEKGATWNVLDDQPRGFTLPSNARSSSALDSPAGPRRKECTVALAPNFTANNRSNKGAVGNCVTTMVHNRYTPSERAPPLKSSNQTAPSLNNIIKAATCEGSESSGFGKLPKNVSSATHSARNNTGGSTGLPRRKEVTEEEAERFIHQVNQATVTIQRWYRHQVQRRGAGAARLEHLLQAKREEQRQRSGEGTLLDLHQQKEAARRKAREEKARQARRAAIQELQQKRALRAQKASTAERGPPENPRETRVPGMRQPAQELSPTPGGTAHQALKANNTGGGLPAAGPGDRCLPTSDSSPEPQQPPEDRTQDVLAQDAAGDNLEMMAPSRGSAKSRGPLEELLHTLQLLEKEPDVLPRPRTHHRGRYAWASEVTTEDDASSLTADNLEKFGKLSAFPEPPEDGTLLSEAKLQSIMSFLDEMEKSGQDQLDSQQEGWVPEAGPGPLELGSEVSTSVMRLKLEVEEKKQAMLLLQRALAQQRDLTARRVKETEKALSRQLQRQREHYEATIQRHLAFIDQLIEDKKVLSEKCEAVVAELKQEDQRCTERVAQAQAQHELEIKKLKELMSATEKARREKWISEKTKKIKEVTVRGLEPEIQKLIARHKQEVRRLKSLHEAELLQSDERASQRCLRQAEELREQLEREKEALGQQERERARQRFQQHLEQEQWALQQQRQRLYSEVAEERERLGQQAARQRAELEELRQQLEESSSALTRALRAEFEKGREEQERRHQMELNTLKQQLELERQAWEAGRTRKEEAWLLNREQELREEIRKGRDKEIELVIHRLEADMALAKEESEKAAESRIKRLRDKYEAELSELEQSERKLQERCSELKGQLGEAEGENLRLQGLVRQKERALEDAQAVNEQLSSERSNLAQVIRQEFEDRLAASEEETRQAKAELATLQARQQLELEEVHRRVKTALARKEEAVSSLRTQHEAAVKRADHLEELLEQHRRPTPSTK
The experiment in a line: affinity purification with mass spectrometry; whole-cell extracts of HeLa cells with Dox-inducible, stably integrated FLAG-tagged bait on an anti-FLAG M2 column; washed with cold PBS plus 0.2% Nonidet P-40; eluted with FLAG peptide; bands of a silver-stained gel analysed by LC-MS/MS.

A further experiment has as its target FLAG-USP9X (human) (UniProt Q93008). Described as above.

With “PCM1 (pericentriolar material 1), endogenous (from UniProt Q15154 1-2024)”, in the experiment with FLAG-CEP131 (human), the binding result is on record as “binds”.
Consider “ubiquitin-specific peptidase 9, X-linked (USP9X), endogenous (from UniProt Q93008 1-2554) (enzyme)”, for which the binding entry in the experiment with FLAG-CEP131 (human) was “binds”.

B1: CEP131, centriolar satellite protein, endogenous (protein, UniProt Q9UPN4 1-1083)
chain: MKGTRAIGSVPERSPAGVDLSLTGLPPPVSRRPGSAATTKPIVRSVSVVTGSEQKRKVLEATGPGGSQAINNLRRSNSTTQVSQPRSGSPRPTEPTDFLMLFEGSPSGKKRPASLSTAPSEKGATWNVLDDQPRGFTLPSNARSSSALDSPAGPRRKECTVALAPNFTANNRSNKGAVGNCVTTMVHNRYTPSERAPPLKSSNQTAPSLNNIIKAATCEGSESSGFGKLPKNVSSATHSARNNTGGSTGLPRRKEVTEEEAERFIHQVNQATVTIQRWYRHQVQRRGAGAARLEHLLQAKREEQRQRSGEGTLLDLHQQKEAARRKAREEKARQARRAAIQELQQKRALRAQKASTAERGPPENPRETRVPGMRQPAQELSPTPGGTAHQALKANNTGGGLPAAGPGDRCLPTSDSSPEPQQPPEDRTQDVLAQDAAGDNLEMMAPSRGSAKSRGPLEELLHTLQLLEKEPDVLPRPRTHHRGRYAWASEVTTEDDASSLTADNLEKFGKLSAFPEPPEDGTLLSEAKLQSIMSFLDEMEKSGQDQLDSQQEGWVPEAGPGPLELGSEVSTSVMRLKLEVEEKKQAMLLLQRALAQQRDLTARRVKETEKALSRQLQRQREHYEATIQRHLAFIDQLIEDKKVLSEKCEAVVAELKQEDQRCTERVAQAQAQHELEIKKLKELMSATEKARREKWISEKTKKIKEVTVRGLEPEIQKLIARHKQEVRRLKSLHEAELLQSDERASQRCLRQAEELREQLEREKEALGQQERERARQRFQQHLEQEQWALQQQRQRLYSEVAEERERLGQQAARQRAELEELRQQLEESSSALTRALRAEFEKGREEQERRHQMELNTLKQQLELERQAWEAGRTRKEEAWLLNREQELREEIRKGRDKEIELVIHRLEADMALAKEESEKAAESRIKRLRDKYEAELSELEQSERKLQERCSELKGQLGEAEGENLRLQGLVRQKERALEDAQAVNEQLSSERSNLAQVIRQEFEDRLAASEEETRQAKAELATLQARQQLELEEVHRRVKTALARKEEAVSSLRTQHEAAVKRADHLEELLEQHRRPTPSTK
As for B1, the binding result in the experiment with FLAG-USP9X (human) is listed as “binds”.
